This passage reports MIC results from article PMC3709443 (Natural product communications, 2009).

≈ marks a conversion by molar mass, not a printed value.

The test system of this assay is Escherichia coli ATCC 35218. Kind of assay: Antimicrobial susceptibility assay, E. coli. It is filed as cell-based. The conditions noted are these: ATCC35218, read-out: E. coli MIC. Summed up: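 Modified CLSI broth dilution with test compound dissolved in DMSO and serially diluted in 20% DMSO/saline, in duplicate. Inoculum prepared to target CFU/mL. Plates read at 630 nm before and after incubation. IC50 from percent growth vs concentration. MIC is the lowest concentration with no detectable growth. MBC is the lowest concentration giving no growth when 5 μL from clear wells is subcultured on agar. Ciprofloxacin control.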

`O=C(O)c1cn(C2CC2)c2cc(N3CCNCC3)c(F)cc2c1=O` [Ciprofloxacin, ciprofloxacin, reference compound]: the MIC worked out at 0.016 µg/mL (≈ 0.0483 µM).

Usually MIC stands for the lowest concentration that inhibits growth of the organism.
